In assay [1] the target is Proteasome activator complex subunit 3 (PSME3), REGγ (UniProt P61290). As to the kind of experiment: co-IP; cell lysate in RIPA buffer (50 mM Tris HCl, 150 mM NaCl, 1 mM EDTA, 10% glycerol, protease inhibitor); anti-DYKDDDDK/anti-HA agarose overnight at 4 °C; SDS-PAGE.
For assay [2] the target is unchanged. The assay is described as above. This is another data set of the same source.

The chains behind the UniProt entries cited, without tags or fusion partners.
UniProt P61290: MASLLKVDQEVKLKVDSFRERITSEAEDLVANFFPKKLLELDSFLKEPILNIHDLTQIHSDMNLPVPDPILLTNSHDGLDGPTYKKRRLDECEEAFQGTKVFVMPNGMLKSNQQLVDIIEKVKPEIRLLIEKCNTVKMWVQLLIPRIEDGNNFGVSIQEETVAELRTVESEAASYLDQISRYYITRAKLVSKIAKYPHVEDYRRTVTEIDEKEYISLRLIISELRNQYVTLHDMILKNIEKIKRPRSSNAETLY
UniProt Q9EPW2: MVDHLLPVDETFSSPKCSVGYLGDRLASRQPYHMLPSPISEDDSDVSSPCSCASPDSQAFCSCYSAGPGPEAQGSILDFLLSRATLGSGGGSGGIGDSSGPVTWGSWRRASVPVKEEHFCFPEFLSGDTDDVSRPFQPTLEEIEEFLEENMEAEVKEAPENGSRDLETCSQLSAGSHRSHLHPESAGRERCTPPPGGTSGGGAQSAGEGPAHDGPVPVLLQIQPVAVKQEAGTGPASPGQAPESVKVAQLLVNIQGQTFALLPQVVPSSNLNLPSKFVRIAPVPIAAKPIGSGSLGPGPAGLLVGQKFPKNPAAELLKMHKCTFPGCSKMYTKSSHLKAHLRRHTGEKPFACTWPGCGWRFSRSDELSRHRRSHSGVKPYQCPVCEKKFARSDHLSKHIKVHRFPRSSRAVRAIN

Where two headings read alike, the source gives them in different places. These are yes or no findings as the source states them, for the method shown. In cells and extracts the contact can be indirect. Some entries that bind do so weakly or less than the wild type.

Take KLF15 (from UniProt Q9EPW2 1-415): the binding result in assay [1] is recorded as “binds”.

B1: ACADM (protein, UniProt P45952 26-421)
chain: KAAHKQEPGLGFSFELTEQQKEFQATARKFAREEIIPVAPEYDKSGEYPFPLIKRAWELGLINAHIPESCGGLGLGTFDACLITEELAYGCTGVQTAIEANSLGQMPVILAGNDQQKKKYLGRMTEQPMMCAYCVTEPSAGSDVAAIKTKAEKKGDEYVINGQKMWITNGGKANWYFLLARSNPDPKVPASKAFTGFIVEADTPGIHIGKKELNMGQRCSDTRGIAFEDVRVPKENVLIGEGAGFKIAMGAFDRTRPTVAAGAVGLAQRALDEATKYALDRKTFGKLLVEHQGVSFLLAEMAMKVELARLSYQRAAWEVDSGRRNTYYASIAKAFAGDIANQLATDAVQIFGGYGFNTEYPVEKLMRDAKIYQIYEGTAQIQRLIIAREHIEKYKN
On to B1, for which the binding entry in assay [2] is “binds”.

(Values after article PMC12697771.)
